These are yes or no findings as the source states them, for the method shown. Some entries that bind do so weakly or less than the wild type.
Molecular target: T1, Mfa1 (Porphyromonas gingivalis (endogenous in strain JI-1)) (UniProt B2RHG1)
T1 sequence: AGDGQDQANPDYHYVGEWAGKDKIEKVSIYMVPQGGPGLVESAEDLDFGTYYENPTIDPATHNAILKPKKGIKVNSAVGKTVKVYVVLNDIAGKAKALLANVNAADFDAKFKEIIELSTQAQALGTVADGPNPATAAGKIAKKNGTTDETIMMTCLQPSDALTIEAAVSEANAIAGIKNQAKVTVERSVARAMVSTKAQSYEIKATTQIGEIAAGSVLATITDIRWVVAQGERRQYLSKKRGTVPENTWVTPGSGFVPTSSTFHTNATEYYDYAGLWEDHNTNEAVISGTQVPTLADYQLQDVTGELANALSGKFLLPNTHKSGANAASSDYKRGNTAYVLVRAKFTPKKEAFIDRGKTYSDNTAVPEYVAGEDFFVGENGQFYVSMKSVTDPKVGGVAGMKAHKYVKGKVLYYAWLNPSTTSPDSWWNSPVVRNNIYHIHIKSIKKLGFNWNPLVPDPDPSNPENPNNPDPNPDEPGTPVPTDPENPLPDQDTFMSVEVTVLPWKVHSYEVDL
Assay: co-purification of native fimbriae; Mfa1 fimbriae purified from P. gingivalis cells (French press, ultracentrifugation, 50% ammonium sulfate, ion exchange and size exclusion chromatography); components seen by SDS-PAGE (CBB), anti-Mfa4 immunoblot and N-terminal sequencing

Protein sequences, listed by entry. Tags and fused reporters are not part of them. Residues count along the entry.
UniProt B2RHG3, residues 44-446: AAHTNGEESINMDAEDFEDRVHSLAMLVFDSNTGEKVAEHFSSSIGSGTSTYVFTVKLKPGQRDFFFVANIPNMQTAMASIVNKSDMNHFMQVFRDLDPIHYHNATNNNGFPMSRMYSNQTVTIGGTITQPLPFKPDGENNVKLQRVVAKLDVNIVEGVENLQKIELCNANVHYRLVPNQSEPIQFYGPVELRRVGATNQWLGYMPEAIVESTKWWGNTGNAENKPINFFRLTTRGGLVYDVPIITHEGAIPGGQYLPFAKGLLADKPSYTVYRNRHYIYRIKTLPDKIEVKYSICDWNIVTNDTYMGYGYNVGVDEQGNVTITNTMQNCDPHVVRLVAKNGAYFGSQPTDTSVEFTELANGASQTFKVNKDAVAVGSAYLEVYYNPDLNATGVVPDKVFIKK
UniProt B2RHG4, residues 54-333: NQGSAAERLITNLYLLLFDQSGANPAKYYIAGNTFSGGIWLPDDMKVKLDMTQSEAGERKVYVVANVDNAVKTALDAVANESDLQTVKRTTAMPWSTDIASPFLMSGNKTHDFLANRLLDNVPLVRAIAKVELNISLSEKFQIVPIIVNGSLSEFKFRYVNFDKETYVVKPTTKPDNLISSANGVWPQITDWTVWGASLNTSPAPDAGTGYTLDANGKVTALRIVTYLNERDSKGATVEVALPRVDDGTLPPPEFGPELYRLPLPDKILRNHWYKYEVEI
UniProt B2RHG5, residues 26-1228: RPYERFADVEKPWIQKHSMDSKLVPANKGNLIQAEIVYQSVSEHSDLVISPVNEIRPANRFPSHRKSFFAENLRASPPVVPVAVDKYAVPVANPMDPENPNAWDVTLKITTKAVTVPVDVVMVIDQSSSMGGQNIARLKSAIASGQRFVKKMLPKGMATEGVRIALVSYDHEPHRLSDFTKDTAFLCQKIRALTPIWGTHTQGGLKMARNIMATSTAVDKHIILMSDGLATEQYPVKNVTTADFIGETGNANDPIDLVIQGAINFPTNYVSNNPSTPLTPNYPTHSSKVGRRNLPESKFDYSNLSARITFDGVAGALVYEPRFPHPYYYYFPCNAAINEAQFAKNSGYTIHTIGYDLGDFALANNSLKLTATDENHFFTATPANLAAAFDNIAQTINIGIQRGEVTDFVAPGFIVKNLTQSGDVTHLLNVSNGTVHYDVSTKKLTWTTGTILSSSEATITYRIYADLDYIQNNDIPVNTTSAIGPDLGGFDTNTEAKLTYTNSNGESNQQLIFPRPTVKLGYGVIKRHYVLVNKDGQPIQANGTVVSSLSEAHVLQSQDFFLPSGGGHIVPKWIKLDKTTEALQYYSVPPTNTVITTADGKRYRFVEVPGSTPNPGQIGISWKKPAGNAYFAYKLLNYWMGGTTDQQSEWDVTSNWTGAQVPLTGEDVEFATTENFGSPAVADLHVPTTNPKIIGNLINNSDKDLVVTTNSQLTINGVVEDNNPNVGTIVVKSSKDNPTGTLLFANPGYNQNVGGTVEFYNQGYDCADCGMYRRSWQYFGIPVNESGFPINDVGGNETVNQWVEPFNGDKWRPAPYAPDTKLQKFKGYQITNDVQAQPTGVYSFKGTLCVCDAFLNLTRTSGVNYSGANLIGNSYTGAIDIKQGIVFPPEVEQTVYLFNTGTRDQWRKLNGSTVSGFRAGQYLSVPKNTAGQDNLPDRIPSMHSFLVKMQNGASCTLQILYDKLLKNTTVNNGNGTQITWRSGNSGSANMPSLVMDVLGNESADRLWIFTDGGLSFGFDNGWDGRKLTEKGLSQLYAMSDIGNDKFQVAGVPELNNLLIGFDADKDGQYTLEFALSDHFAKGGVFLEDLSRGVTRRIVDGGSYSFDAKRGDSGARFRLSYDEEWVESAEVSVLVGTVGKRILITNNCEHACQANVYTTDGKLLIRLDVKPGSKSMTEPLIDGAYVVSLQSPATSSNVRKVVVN

Row | Substance | binding
1 | Mfa3 (from UniProt B2RHG3 44-446) | binds
2 | Mfa4, mature form (wild type) (from UniProt B2RHG4 54-333) | binds
3 | Mfa5 (from UniProt B2RHG5 26-1228) | binds
